From patent publication US20200330514A1
No constants are given. Whether binding was seen depends on the method and setting. Some binding calls cover weakened binding; strength is not graded here.

Chains of the proteins cited; added tags and fusions are not shown. Lines headed by an entry give the natural chain unless they say otherwise; changes in a name come on top. Residues count along the entry.
UniProt P08575, residues 26-1306: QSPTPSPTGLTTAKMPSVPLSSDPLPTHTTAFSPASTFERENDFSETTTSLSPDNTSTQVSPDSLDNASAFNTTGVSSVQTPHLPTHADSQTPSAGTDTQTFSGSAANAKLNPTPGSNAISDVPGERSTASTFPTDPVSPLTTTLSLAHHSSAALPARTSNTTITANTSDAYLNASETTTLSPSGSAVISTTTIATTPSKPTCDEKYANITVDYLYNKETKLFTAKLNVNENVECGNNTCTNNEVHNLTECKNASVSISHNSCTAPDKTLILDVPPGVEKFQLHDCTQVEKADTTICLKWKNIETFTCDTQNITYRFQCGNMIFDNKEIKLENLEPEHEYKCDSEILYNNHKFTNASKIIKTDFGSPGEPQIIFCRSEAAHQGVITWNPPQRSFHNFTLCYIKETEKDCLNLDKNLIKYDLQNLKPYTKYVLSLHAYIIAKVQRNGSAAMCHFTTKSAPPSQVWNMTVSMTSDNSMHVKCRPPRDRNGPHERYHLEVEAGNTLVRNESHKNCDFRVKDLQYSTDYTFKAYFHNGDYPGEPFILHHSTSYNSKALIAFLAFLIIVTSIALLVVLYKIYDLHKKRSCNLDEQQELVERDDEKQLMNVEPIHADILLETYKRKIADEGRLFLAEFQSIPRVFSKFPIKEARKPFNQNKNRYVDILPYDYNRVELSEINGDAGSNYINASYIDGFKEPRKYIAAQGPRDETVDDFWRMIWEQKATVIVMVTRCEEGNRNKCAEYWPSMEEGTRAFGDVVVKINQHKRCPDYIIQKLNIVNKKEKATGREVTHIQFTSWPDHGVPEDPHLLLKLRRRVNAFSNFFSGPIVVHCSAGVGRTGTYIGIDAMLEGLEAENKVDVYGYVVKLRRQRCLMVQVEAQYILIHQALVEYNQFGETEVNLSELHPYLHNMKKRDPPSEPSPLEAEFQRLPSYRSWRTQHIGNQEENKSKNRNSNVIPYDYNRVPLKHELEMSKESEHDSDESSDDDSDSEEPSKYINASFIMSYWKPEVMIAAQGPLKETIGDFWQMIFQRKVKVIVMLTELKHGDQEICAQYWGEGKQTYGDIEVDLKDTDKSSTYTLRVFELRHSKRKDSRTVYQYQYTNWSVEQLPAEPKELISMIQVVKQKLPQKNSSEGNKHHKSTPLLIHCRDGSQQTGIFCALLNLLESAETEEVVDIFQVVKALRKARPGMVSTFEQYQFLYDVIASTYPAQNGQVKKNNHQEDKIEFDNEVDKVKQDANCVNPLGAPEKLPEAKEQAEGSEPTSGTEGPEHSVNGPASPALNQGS
UniProt Q13261: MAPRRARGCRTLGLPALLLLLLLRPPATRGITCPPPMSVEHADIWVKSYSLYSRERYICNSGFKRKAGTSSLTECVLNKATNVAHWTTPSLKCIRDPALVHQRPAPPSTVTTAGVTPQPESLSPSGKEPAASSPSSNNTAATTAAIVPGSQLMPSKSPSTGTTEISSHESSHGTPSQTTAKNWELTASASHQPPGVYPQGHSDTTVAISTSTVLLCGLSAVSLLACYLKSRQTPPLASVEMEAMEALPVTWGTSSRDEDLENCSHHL

Experiments:
[1] = target: human CD45 receptor on the surface of human T cells (human) (UniProt P08575); assay: pulse assay on human T cells, surface staining by flow cytometry (FIG. 18C)
[2] = target: human CD45 receptor on the surface of human T cells (human) (UniProt P08575); assay: pulse incubation of human CD3 T cells, anti-IL-15 staining by flow cytometry (FIG. 25)
[3] = target: human CD45 receptor on the surface of human T cells (human) (UniProt P08575); assay: pulse incubation at 500 nM, anti-IL-15 staining by flow cytometry (FIG. 26)
[4] = target: human CD45 receptor on the surface of human T cells (human) (UniProt P08575); assay: five-fold serial dilutions on activated human CD3 T cells, anti-IL-15 staining by flow cytometry (FIG. 31B)

| Substance | binding [1] | binding [2] | binding [3] | binding [4] |
| --- | --- | --- | --- | --- |
| chBC8Fab IFM comprising IL-15-D61N (from UniProt Q13261 31-95) | binds | – | – | – |
| chBC8Fab IFM comprising IL-15-Q108N (from UniProt Q13261 31-95) | binds | – | – | – |
| h9.4Fab-IL15/sushi (from UniProt Q13261 31-95) | – | binds | binds | binds |
